The nature of this experiment: qHTS Assay for Lipid Storage Modulators in Drosophila S3 Cells.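 On cell number change: cells counted by Cell Tracker Red CMTPX staining in the red channel.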 As to conditions: BODIPY lipid droplet fluorescence, 18-24 h; for cell number change: measured here: cell count max response, cells fed with added oleic acid. Summed up:
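Drosophila S3 cells got compounds at several concentrations plus oleic acid (400 uM solution). Laser-scanning cytometry with 488 nm excitation read lipid droplets at 500-530 nm and cells at 575-640 nm. Percent activity was relative to 20 uM Triacsin C.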
On the technique in general: qHTS replaces the single test concentration by a dilution series.

Setting [1] is: measured here: lipid fluorescence (Fed channel) AC50, cells fed with added oleic acid.
Setting [2] is: measured here: cell number channel AC50, cells fed with added oleic acid.

Some of the results follow. Shown are side measurements of this screen, not its main read-out; they come without a call. The list favours compounds with an active or inconclusive main result. Words in brackets tell the shape of the fitted curve; partial curves, single points and poor fits give uncertain potencies.

This note sets out measurements from PubChem BioAssay AID2685 (National Center for Advancing Translational Sciences (NCATS), 2010).

For orientation: AC50 means the midpoint of the concentration-response curve, whichever way the signal moves. A higher AC50 goes with activity only at high concentration.

With `CC(=O)c1cccc(NC(=O)c2ccc3c(c2)OCO3)c1`, the cell number change was -8.21%. The AC50 under setting [1] was 9.2 µM [falling, partial curve, poor fit].
As for `O=[N+]([O-])c1cc2c(cc1/C=N/n1c(-c3ccccc3)n[nH]c1=S)OCO2`, the cell number change is -0.461%. Under setting [1], the AC50 is 0.651 µM [falling, single point].
For `O=C(O)C1CCCN1C(=O)C1CCN(S(=O)(=O)c2cccc(C(F)(F)F)c2)CC1` (stereo unspecified), the cell number change came to 25%.
In the case of `COc1ccc(C(=O)N(CCN2CCOCC2)CC(=O)NC2CCCC2)cc1OC`, the cell number change is -89.3%. Moreover, under setting [2], the AC50 was 29.1 µM [falling, single point]. Moreover, under setting [1], the concentration at half-maximal activity (AC50) is 23.1 µM [falling, single point].
Turning to `CN(CC(=O)NNC(=O)Cc1ccccc1F)S(=O)(=O)c1ccc(Cl)cc1`, the cell number change was -12.3%. In addition, the AC50 under setting [1] was 3.66 µM [rising, single point].
Take `C/C(=N\NC(=O)c1ccncc1)c1ccc(N(C)C)cc1`: the cell number change was 29.6%.
As to `COc1ccc(CC(=O)NCC2CCCN(Cc3cccc(C(F)(F)F)c3)C2)cc1` (stereo unspecified), the cell number change was found to be 16.6%.
Same read-out and setting: the figure for `O=C(NC1CCN(S(=O)(=O)c2cccc(F)c2)CC1)c1ccc(F)cc1` is 1.4%.
The same measure, in the same setting: the figure for `COc1ccccc1C(=O)NCCC(=O)NCC(c1ccccc1OC)N1CCCC1` (stereo unspecified) is 6.83%.
On to `O=C(NCc1ccccc1)c1c(F)c(F)c(F)c(F)c1F`, for which the cell number change amounted to 15.1%. Further, the AC50 under setting [2] was 0.461 µM [rising, full curve, poor fit]. Also, under setting [1], the half-maximal activity concentration (AC50) is 29.1 µM [falling, single point].
Consider `C=CCc1cc(C=O)cc(OC)c1OCc1ccc(C(=O)O)cc1`, for which the cell number change came out at 31.1%. The AC50 under setting [1] is 20.6 µM [rising, single point].
Take `CCOc1ccc(C(=O)NC(C(=O)NCc2ccccc2OC)C(C)C)cc1` (stereo unspecified): the cell number change was determined as 39.8%. The half-maximal activity concentration (AC50) under setting [2] is 1.16 µM [rising, full curve, poor fit]. Moreover, the AC50 under setting [1] was 1.84 µM [rising, full curve].
On to `Cc1ccccc1NC(=O)c1oc(=O)c2ccccc2c1-c1ccccc1`, for which the cell number change came out at 20.6%. Also, the AC50 under setting [1] was 4.61 µM [rising, partial curve].
Turning to `COc1ccc(CCNS(=O)(=O)c2ccc3c(c2)n(C)c(=O)c(=O)n3C)cc1OC`, the cell number change is 1.93%. In addition, the half-maximal activity concentration (AC50) under setting [1] was 0.13 µM [falling, full curve, poor fit].
Take `Cc1cc(OCC(=O)Nc2ccccc2N2CCCC2)ccc1C(C)C`: the cell number change was found to be 25%. Besides, the AC50 under setting [2] was 0.00461 µM [falling, full curve, poor fit]. The AC50 under setting [1] was 29.1 µM [falling, single point].
Regarding `CC1(C)Cc2c(sc3c2c(N)nc(=S)n3Cc2ccc(Br)cc2)CO1`, the cell number change came to 28%. The concentration at half-maximal activity (AC50) under setting [2] was 0.092 µM [rising, full curve, poor fit].
For the molecule `CN(C)S(=O)(=O)c1cccc(NC(=O)COC(=O)CCSc2ccc(Cl)cc2)c1`, the cell number change is 6.32%. The AC50 under setting [1] is 4.61 µM [rising, partial curve].
As to `COc1ccc(CC(=O)N/N=C(\C)CC(=O)Nc2ccc3c(c2)OCCO3)cc1`, the cell number change was -0.794%. Besides, the AC50 under setting [1] is 6.51 µM [rising, partial curve, poor fit].
With `CN(C)S(=O)(=O)c1ccc(Cl)c(NC(=O)COC(=O)CN2C(=O)C3CCCCC3C2=O)c1` (stereo unspecified), the cell number change was found to be 68.3%.
Same read-out and setting: for `CCN1CCN(C(=O)c2cc(-c3ccc(Cl)s3)nc3ccccc23)CC1` the value was -5.25%.
Turning to `O=C(Cc1c[nH]c2ccccc12)Nc1cccc(S(=O)(=O)N2CCCCC2)c1`, the half-maximal activity concentration (AC50) under setting [2] is 2.06 µM [rising, partial curve, poor fit].
Still for that read-out and setting: the figure for `CCC(CC)c1nnc(NC(=O)c2ccc3ccccc3n2)s1` is 0.146 µM [rising, full curve, poor fit]; for `O=C1CCc2cc(S(=O)(=O)N3CCC(C(=O)NCc4ccccc4Cl)CC3)ccc2N1` it is 0.13 µM [rising, full curve, poor fit].
With `COc1ccccc1C(=O)C1CCCN(Cc2ccc3c(c2)OCCO3)C1` (stereo unspecified), the cell number change worked out at 10.7%. Further, the half-maximal activity concentration (AC50) under setting [1] was 0.517 µM [falling, full curve, poor fit].
Consider `O=C(Nc1ccc2ccccc2n1)Nc1cccs1`, for which the AC50 under setting [1] was 0.326 µM [rising, full curve, poor fit].
In the case of `CC(C)(C)NS(=O)(=O)c1ccc2nc(NC(=O)c3ccc(N4C(=O)CCC4=O)cc3)sc2c1`, the cell number change was found to be 52.4%. Under setting [2], the AC50 was 29.1 µM [rising, single point].
As to `COc1cccc(-n2nnnc2SCC(=O)Nc2ccccc2OC)c1`, the cell number change is 5.91%.
Consider `CCOC(=O)N1CCC(NC(=O)c2cc(C(=O)Nc3ccc(OCC)cc3)ccc2CO)CC1`, for which the cell number change was 32.5%. In addition, the half-maximal activity concentration (AC50) under setting [2] was 18.4 µM [rising, single point]. Also, the AC50 under setting [1] was 14.6 µM [rising, single point].
With `COc1ccccc1Nc1ncnc2c1cnn2-c1cccc(C)c1`, the cell number change stood at 29.4%. Further, the concentration at half-maximal activity (AC50) under setting [2] was 3.66 µM [rising, full curve, poor fit].
Turning to `CS(=O)(=O)N1CCN(C(=O)Cc2ccccc2)CC1`, the cell number change amounted to 4.78%. Moreover, the AC50 under setting [1] was 29.1 µM [rising, single point].
Regarding `Cc1ccc2nsnc2c1S(=O)(=O)N(Cc1ccco1)Cc1cc2cccc(C)c2[nH]c1=O`, the cell number change worked out at 35.1%. For the same molecule, the AC50 under setting [2] is 32.6 µM [rising, single point]. Also, the concentration at half-maximal activity (AC50) under setting [1] is 4.11 µM [falling, single point].
Take `O=C(c1[nH]ncc1-c1ccccc1)C1CO1` (stereo unspecified): the cell number change is 8.24%. The AC50 under setting [1] was 6.51 µM [falling, single point].
Turning to `O=C(O)CCCC(=O)NCCCCc1ccccc1`, the cell number change worked out at 3.22%. In addition, under setting [2], the AC50 is 0.0517 µM [falling, full curve, poor fit].
For the molecule `Cc1ccc(NC(=O)COc2ncnc3ccccc23)cc1S(=O)(=O)N1CCOCC1`, the cell number change came out at 0.482%.
As to `CCOc1ccc(CC(=O)NCCS(=O)(=O)N2CCN(c3ccccc3)CC2)cc1`, the AC50 under setting [2] was 3.26 µM [rising, single point].
`CC(C(=O)Nc1ccccc1C(=O)N1CCCC1)n1nnc2ccccc21` (stereo unspecified): the cell number change is -48.5%. The AC50 under setting [2] is 29.1 µM [falling, single point]. The half-maximal activity concentration (AC50) under setting [1] was 29.1 µM [falling, single point].
On to `COC(=O)[C@H](CCSC)NC(=O)Cn1ccc(N)nc1=O`, for which the cell number change is -15.1%. Besides, the AC50 under setting [2] is 0.461 µM [falling, partial curve, poor fit].
Consider `CCN(C(=O)c1cc2c(=O)n3ccccc3nc2n1C)C1CCCCC1`, for which the cell number change was 18.5%. For the same molecule, under setting [1], the AC50 was 0.13 µM [rising, single point].
On to `O=C(OCc1nnc(-c2ccccc2)o1)c1ccccc1`, for which the cell number change stood at 17.3%. In addition, the AC50 under setting [1] was 2.91 µM [falling, single point].
